Results from PubChem BioAssay AID445 (National Center for Advancing Translational Sciences (NCATS), 2006).
The other results are listed elsewhere or left out. Shown are side measurements of this screen, not its main read-out; they come without a call. Most of these compounds were active or inconclusive in the main read-out, so they are no random draw. Potencies come from curve fits of mixed quality, noted in brackets.

Test: IkB Signaling
Conditions: ABC-DLBCL IkBa-CBG/CBR dual luciferase ratio (green luciferase fused to IkBa over red control in OCI-Ly3 lymphoma cells), 4 h
Summary of the method: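 In this assay, an IκBα–CBG68 fusion accumulates when IKK-driven degradation is blocked; native CBR normalizes for cell number. OCI-Ly3 cells were treated 4 h with compound and doxycycline, then green and red light read after Chroma-Glo addition.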

[1] = measured here: control luc red channel unless noted
[2] = measured here: IkB-luc green channel
[3] = measured here: control luc red channel

SMILES: Cc1ccc(-c2nc3cnccn3c2Nc2ccc3c(c2)OCCO3)o1
- AC50 [1]: 3.16 µM [rising, partial curve]

SMILES: Cc1ccc(S(=O)(=O)c2nnn3c2nc(N2CCC(C)CC2)c2cc(Cl)ccc23)cc1C
- AC50 [1]: 0.0794 µM [falling, full curve, poor fit]

SMILES: COc1ccc(NC(=O)c2ccc3c(c2)n(C)c(=O)n3C)cc1
- AC50 [1]: 20 µM [rising, partial curve] [measured here: IkB-luc green channel]

SMILES: CCOC(=O)Nc1nnc(-c2cccc(OC)c2)s1
- AC50 [1]: 3.98 µM [rising, partial curve]

SMILES: Cc1nn2c(=O)cc(COC(=O)c3ccc(NC(=O)COc4ccc(Cl)cc4)cc3)nc2s1
- AC50 [1]: 0.00631 µM [falling, full curve, poor fit]

SMILES: Cc1ccccc1Nc1c(-c2c[nH]c3ccccc23)nc2ccccn12
- AC50 [1]: 0.0631 µM [falling, full curve]

SMILES: Cc1ccc(-c2csc(=S)n2CC(=O)OCC(=O)NCc2ccco2)cc1
- AC50 [1]: 15.8 µM [falling, single point]

SMILES: CCOc1ccc(CCNc2ncnc3onc(-c4ccc(Cl)cc4)c23)cc1
- AC50 [1]: 31.6 µM [falling, partial curve]

SMILES: O=C(Cn1nnc2sc(-c3ccccc3)cc2c1=O)Nc1cccc(C(F)(F)F)c1
- AC50 [1]: 20 µM [falling, single point]

SMILES: O=c1c2oc3ccccc3c2n(Cc2ccccc2)c(=O)n1Cc1ccco1
- AC50 [1]: 12.6 µM [falling, single point]

SMILES: N=c1oc2c3c4c(cc2cc1C(=O)Nc1ccccc1)CCCN4CCC3
- AC50 [1]: 0.0794 µM [falling, full curve]

SMILES: CCOC(=O)c1cc(-c2ccccc2)n(CCC(=O)Nc2cc(OCC)ccc2OCC)c1C
- AC50 [1]: 1.26 µM [rising, full curve]

SMILES: COc1ccc(NC(=O)c2ccc(NC(=O)CCS(=O)(=O)c3cccs3)cc2)cc1OC
- AC50 [1]: 10 µM [falling, partial curve]

SMILES: COCCn1nnnc1C(c1cc2cccc(C)c2[nH]c1=O)N1CCN(c2ccccc2F)CC1 (configuration not stated)
- AC50 [1]: 25.1 µM [falling, partial curve]

SMILES: CCCCCn1c(CCCNC(=O)c2cccc(C)c2)nc2ccccc21
- AC50 [1]: 15.8 µM [falling, partial curve]

SMILES: CCn1c(NCc2ccc(OC)c(OC)c2)nc2ccccc21
- AC50 [1]: 0.0631 µM [falling, full curve]

SMILES: CCOc1ccccc1CNC(=O)c1ccc2c(c1)sc1nc(-c3ccccc3)cn12
- AC50 [1]: 0.251 µM [falling, full curve, poor fit]

SMILES: Cc1ccc(Cl)cc1N1CCN(CCCNc2ncnc3onc(-c4ccc(Cl)cc4)c23)CC1
- AC50 [1]: 39.8 µM [falling, single point]

SMILES: C/C(=C\c1ccc(C(=O)O)cc1)c1ccc2c(c1)C(C)(C)CCC2(C)C
- AC50 [1]: 6.31e-05 µM [rising, full curve, poor fit]

SMILES: CC(C)CCNC(=O)NC(=O)COc1ccccc1C#N
- AC50 [1]: 0.158 µM [falling, full curve]

SMILES: COc1ccc(C2=NS(=O)(=O)N(C)C(C(=O)NC(C)c3ccccc3)=C2)cc1 (configuration not stated)
- AC50 [1]: 12.6 µM [falling, partial curve]

SMILES: CCC(C)(C)n1nnnc1CN(Cc1cccs1)Cc1cc2cc(OC)ccc2[nH]c1=O
- AC50 [1]: 31.6 µM [falling, single point]

SMILES: O=C(c1ccco1)N1CCN(c2nc(C3CC3)nc3sc4c(c23)CCCC4)CC1
- AC50 [1]: 31.6 µM [falling, partial curve]

SMILES: CCN(C(=O)CSc1nc2ccccc2n1CC(=O)N(C)C1CCCCC1)c1ccccc1
- AC50 [1]: 31.6 µM [falling, single point]

SMILES: Cc1ccc(S(=O)(=O)N(C)CCCC(=O)NCc2ccc3c(c2)OCO3)cc1
- AC50 [1]: 15.8 µM [falling, partial curve]

SMILES: CCc1ccc(C(=O)c2cn(CC(=O)Nc3cc(OC)ccc3OC)c3ccc(Cl)cc3c2=O)cc1
- AC50 [1]: 15.8 µM [falling, partial curve]

SMILES: COc1ccc(-c2cc3nc(C)c(CCC(=O)N4CCCCC4)c(C)n3n2)c(OC)c1
- AC50 [1]: 1.26 µM [falling, full curve]

SMILES: CCc1c(C)sc2c1CCN(Cc1ccccc1C#N)C2c1ccccc1 (configuration not stated)
- AC50 [1]: 25.1 µM [falling, single point]

SMILES: CC1CCN(c2oc(-c3cccs3)nc2S(=O)(=O)c2ccccc2)CC1
- AC50 [1]: 31.6 µM [falling, partial curve]

SMILES: NCCNS(=O)(=O)c1cccc2cnccc12
- AC50 [1]: 2.51 µM [falling, partial curve]

SMILES: COc1ccc(-n2cc(-c3ccc4c(c3)OCO4)n(CC(=O)Nc3cc(Cl)ccc3C)c2=O)cc1
- AC50 [2]: 12.6 µM [rising, partial curve]
- AC50 [3]: 12.6 µM [falling, partial curve]

SMILES: Cc1cc(OCC(=O)N2CCC(c3nc4ccccc4s3)CC2)ccc1Cl
- AC50 [1]: 15.8 µM [falling, partial curve]

SMILES: O=C(CSc1ncc(-c2ccccc2)[nH]1)Nc1cccc(Br)c1
- AC50 [1]: 12.6 µM [falling, partial curve]

SMILES: O=C(Nc1ccc(F)cc1F)N1CCN(c2ncccn2)CC1
- AC50 [1]: 10 µM [falling, partial curve]

SMILES: CCOCCc1nnc(NC(=O)C(=O)c2cc(C)n(-c3ccc(Cl)cc3)c2C)s1
- AC50 [1]: 12.6 µM [falling, partial curve]

SMILES: Cc1cc2n(n1)CCCN2C(=O)Nc1ccc(F)c(Cl)c1
- AC50 [1]: 2.51 µM [rising, full curve]

SMILES: COc1cccc(NC(=O)c2ccc(CN3CCN(c4ccccc4)CC3)cc2)c1
- AC50 [2]: 15.8 µM [falling, partial curve]
- AC50 [3]: 12.6 µM [falling, partial curve]

SMILES: Cc1ccc(S(=O)(=O)c2cnc(SCC(=O)Nc3ccc4c(c3)OCCO4)[nH]c2=O)cc1C
- AC50 [1]: 20 µM [falling, partial curve]

SMILES: COc1cc2nc(NC(=O)c3ccc(S(=O)(=O)N4CCc5ccccc54)cc3)sc2cc1OC
- AC50 [1]: 1.58 µM [falling, full curve]

SMILES: CC1CCCCN1C(=O)c1ccc2c(c1)N(Cc1ccc(F)cc1)C(=O)c1ccccc1S2(=O)=O (configuration not stated)
- AC50 [1]: 12.6 µM [falling, partial curve]
